# Test results reported in PMC11111636 (EJNMMI Radiopharmacy and Chemistry, 2024).
# Assay: general procedure: Fmoc solid-phase peptide synthesis; 2-chlorotrityl chloride resin; HATU, DIPEA
Substance,isolated yield (whole synthesis) [%],"cyclisation yield (cyclisation step, on linear peptide 9) [%]"
N3-Py-DOTAGA-D-Phe-Cys-Tyr-D-Trp-Lys-Thr-Cys-Thr-OH,6,
N3-Py-DOTAGA-D-Phe-cyclo[Cys-Tyr-D-Trp-Lys-Thr-Cys]-Thr-OH,,63
